From the supplement of paper PMC7125110 come the findings set out here.

± gives the standard error. Many of these values have a large error.

B1: glmS ribozyme (parent)
chain: AUAAAAGCGCCAGAACUACAGAAAUGUAGUUGACGAGGAGGAGGUUUAUCGAAUUUUCGGCGGAUGCCUCCAAA

The first data set covers variants of B1. In words: self-cleavage kobs at 40 uM GlcN6P; higher = faster cleavage; RNA array. The conditions noted are these: with glucosamine-6-phosphate. A digest of the protocol:
(§1)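 Glucosamine-6-phosphate (40 μM to 10 mM) in HEPES/KCl/Mg(OAc)2 buffer was flowed over sequenced MiSeq chips, and tiles were imaged over ~14 h. Barcoded ribozyme variants there had been transcribed in situ by E. coli RNA polymerase and were tracked through a hybridised Cy3 probe at 37 °C. One- or two-exponential decay fits to per-tile medians, normalised to baseline and to non-cleaving reference variants, gave kobs. kcat and KM came from weighted Michaelis–Menten fits across concentrations.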
For the variant G7U G13U C16U C50G U56G G66U, the “self-cleavage kobs at 40 uM GlcN6P” value came out at 2.24e-05 ± 2.2e-05 s⁻¹. Still for that read-out and setting: in the case of U46G A53C it was 1.84e-05 ± 9.8e-06 s⁻¹; in that of C11U A14G G35U C50G, 0.000164 ± 8.9e-05 s⁻¹. Turning to A15C U47G C68G, the “self-cleavage kobs at 40 uM GlcN6P” value was determined as 3.98e-05 ± 2e-05 s⁻¹. With C34U C50U C71G, the “self-cleavage kobs at 40 uM GlcN6P” value is 6.86e-05 ± 4.3e-05 s⁻¹. The same measure, in the same setting: in the case of U65A C68G it was 2.73e-05 ± 2e-05 s⁻¹; in that of U65A C70A, 2.04e-05 ± 1.9e-05 s⁻¹. The same measure, in the same setting: in the case of G26U U27A A28G G29U U31G G32A A33C C34G G35A it was 3.04e-05 ± 2.3e-05 s⁻¹.

As to C10A C11U U65G C67U C68A, the “self-cleavage kobs at 40 uM GlcN6P” value stood at 3.74e-05 ± 2e-05 s⁻¹. The same measure, in the same setting: to C19A C67G belongs 3.26e-05 ± 1.7e-05 s⁻¹; to U30A A39C, 2.65e-05 ± 1.5e-05 s⁻¹; to A39G C50G, 2.33e-05 ± 1.7e-05 s⁻¹. As to A14G A48U U69G, the “self-cleavage kobs at 40 uM GlcN6P” value was determined as 2.51e-05 ± 2.5e-05 s⁻¹. The same measure, in the same setting: to A6U U57G C67G belongs 2.47e-05 ± 2.4e-05 s⁻¹. On the same count and under the same terms, in the case of C8A G13U C50A C70G it was 9.65e-05 ± 4.8e-05 s⁻¹; in that of U30C A52U C67U U69C C71A, 2.75e-05 ± 2.6e-05 s⁻¹.

Another data set covers variants of B1. In words: self-cleavage kobs at 640 uM GlcN6P; higher = faster cleavage; RNA array. The conditions noted are these: with glucosamine-6-phosphate. In outline: as §1
Turning to A36G U54G U57G C70A, the “self-cleavage kobs at 640 uM GlcN6P” value was found to be 2.77e-05 ± 2.7e-05 s⁻¹. Still for that read-out and setting: in the case of C11G C68A it was 1.96e-05 ± 1.6e-05 s⁻¹; in that of A33U A42C C58A G59U, 3.16e-05 ± 2.6e-05 s⁻¹; in that of G7U G29A A53G C70A, 0.00219 ± 0.0017 s⁻¹. Regarding U31A G51U G63A U69C, the “self-cleavage kobs at 640 uM GlcN6P” value was determined as 3.47e-05 ± 3.3e-05 s⁻¹. Still for that read-out and setting: to C16U G29U C67G C70U belongs 3.19e-05 ± 2.2e-05 s⁻¹; to C11U G66U, 2.28e-05 ± 2e-05 s⁻¹. In the case of G29A C50G U55A, the “self-cleavage kobs at 640 uM GlcN6P” value stood at 0.00111 ± 0.00063 s⁻¹.

Turning to U31C U57G, the “self-cleavage kobs at 640 uM GlcN6P” value worked out at 2.2e-05 ± 2.1e-05 s⁻¹. Same read-out and setting: to A12C C70G C71U belongs 3.75e-05 ± 2e-05 s⁻¹.

Consider G59A C67U, for which the “self-cleavage kobs at 640 uM GlcN6P” value was 2.05e-05 ± 1.5e-05 s⁻¹. On the same count and under the same terms, in the case of U31C A36C G63U C68A it was 2.22e-05 ± 1.5e-05 s⁻¹. On the same count and under the same terms, to A6U U57G C67G belongs 3.14e-05 ± 3.1e-05 s⁻¹.

Regarding A14G A36G C70G, the “self-cleavage kobs at 640 uM GlcN6P” value was determined as 3.42e-05 ± 1.9e-05 s⁻¹. The same measure, in the same setting: to U65A G66A C67G C71U belongs 2.62e-05 ± 1.5e-05 s⁻¹; to C10G C50U C61A C67G, 3.69e-05 ± 3e-05 s⁻¹.

The variants in a further data set derive from B1. In words: self-cleavage kobs at 160 uM GlcN6P; higher = faster cleavage; RNA array. The conditions noted are these: with glucosamine-6-phosphate. In outline:
as §1
On to A33U A42C C58A G59U, for which the “self-cleavage kobs at 160 uM GlcN6P” value amounted to 1.75e-05 ± 1.4e-05 s⁻¹.

In the case of A53U C58A, the “self-cleavage kobs at 160 uM GlcN6P” value turned out to be 1.41e-05 ± 8.5e-06 s⁻¹.

The variants in another data set derive from B1. In words: self-cleavage kobs at 2500 uM GlcN6P; higher = faster cleavage; RNA array. The conditions noted are these: with glucosamine-6-phosphate. A digest of the protocol:
as §1
A33U A42C C58A G59U: the “self-cleavage kobs at 2500 uM GlcN6P” value was determined as 4.28e-05 ± 2.4e-05 s⁻¹.

As for G59A C67U, the “self-cleavage kobs at 2500 uM GlcN6P” value amounted to 1.58e-05 ± 1.1e-05 s⁻¹. For A39G C50G, the “self-cleavage kobs at 2500 uM GlcN6P” value is 2.08e-05 ± 1.4e-05 s⁻¹. Same read-out and setting: in the case of A6U U57G C67G it was 4.42e-05 ± 3.7e-05 s⁻¹; in that of A14G A36G C70G, 3.38e-05 ± 2.4e-05 s⁻¹.

The next data set covers variants of B1. In words: self-cleavage kobs at 10000 uM GlcN6P; higher = faster cleavage; RNA array. The conditions noted are these: with glucosamine-6-phosphate. In outline: as §1
In the case of C11U A14G G35U C50G, the “self-cleavage kobs at 10000 uM GlcN6P” value turned out to be 3.54e-05 ± 2.2e-05 s⁻¹. On the same count and under the same terms, in the case of A15C U47G C68G it was 2.09e-05 ± 1.9e-05 s⁻¹; in that of A14G A48U U69G, 2.79e-05 ± 1.5e-05 s⁻¹; in that of C8A G13U C50A C70G, 3.91e-05 ± 2.9e-05 s⁻¹.

In another data set the parent is B1. The experiment in a line: KM; higher = weaker cofactor use; RNA array. The conditions noted are these: with glucosamine-6-phosphate. A digest of the protocol:
as §1
Take G60C C68G: the KM was 263 ± 160 µM.

A53U C58A: the KM is 3010 ± 250 µM. For G59A C67U, the Michaelis constant (KM) stood at 2710 ± 2500 µM.

With U65A G66A C67G C71U, the KM is 893 ± 690 µM. Same read-out and setting: to G62C G63C belongs 36 ± 33 µM.

The term KM denotes the substrate concentration at which the rate is half of its maximum.
